The supplement of paper PMC4604168 (melanoma cell lines)
This is one part of the list. Single values are uncertain, as repeats are few or missing.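 Imaging used 1,536-well plates; nuclei positive for cleaved PARP by antibody were divided by total DNA-stained nuclei to yield the apoptosis fraction. Doses for screening kept most cells viable, and cell lines differ markedly in resting and induced cleaved-PARP levels.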

What was measured:
Assay in all cases: cleaved PARP positive nuclei fraction relative to DMSO control; melanoma cells; higher = more apoptosis
Settings in all cases: library dose: low library concentration; 72 h
CBRC034 = test system: CBRC034 (line from a melanoma biopsy)
COLO792 = test system: COLO792
COLO800 = test system: COLO800
COLO829 = test system: COLO829
G361 = test system: G361
IPC-298 = test system: IPC-298
IST-MEL1 = test system: IST-MEL1
LB2518-MEL = test system: LB2518-MEL
LOXIMVI = test system: LOXIMVI

Row | SMILES | cleaved PARP positive nuclei fraction (CBRC034) [%] | cleaved PARP positive nuclei fraction (COLO792) [%] | cleaved PARP positive nuclei fraction (COLO800) [%] | cleaved PARP positive nuclei fraction (COLO829) [%] | cleaved PARP positive nuclei fraction (G361) [%] | cleaved PARP positive nuclei fraction (IPC-298) [%] | cleaved PARP positive nuclei fraction (IST-MEL1) [%] | cleaved PARP positive nuclei fraction (LB2518-MEL) [%] | cleaved PARP positive nuclei fraction (LOXIMVI) [%]
1 | Cc1cc([N+](=O)[O-])ccc1NS(=O)(=O)c1cc(Cl)ccc1Cl + O=C(Oc1ccc([N+](=O)[O-])cc1)N1CCC(C(O)(c2ccc3c(c2)OCO3)c2ccc3c(c2)OCO3)CC1 [JZL184] (first compound 1 µM, partner dose 1 µM) | 1560 | 102 | 103 | 109 | 70.1 | 62 | 98.9 | 43.1 | 136
2 | COc1ccc2c(c1)CCC1C2CCC2(C)C(NCCCCCCN3C(=O)C=CC3=O)CCC12 (configuration not stated) + O=C(Oc1ccc([N+](=O)[O-])cc1)N1CCC(C(O)(c2ccc3c(c2)OCO3)c2ccc3c(c2)OCO3)CC1 [JZL184] (first compound 0.4 µM, partner dose 1 µM) | 104 | 126 | 116 | 74.7 | 140 | 70.9 | 114 | 107 | 44.6
3 | Cc1ccc(NC(=O)c2cccc(N(C)C)c2)cc1NC(=O)c1ccc(O)cc1 + C/C(O)=C(\C#N)C(=O)Nc1cc(Br)ccc1Br [LFM-A13] (first compound 2 µM, partner dose 2 µM) | 92.9 | 90.3 | 157 | 69.6 | 78.1 | 91.4 | 177 | 85.5 | 188
4 | C[As](C)SC[C@H](NC(=O)CC[C@H](N)C(=O)O)C(=O)NCC(=O)O [Darinaparsin] + CCc1ccc(CCOc2ccc(CC3SC(=O)NC3=O)cc2)nc1 [pioglitazone] (first compound 0.4 µM, partner dose 2 µM) | 88.1 | 55.2 | 37.7 | 95.6 | 71 | 39.6 | 29.4 | 88.6 | 74.1
5 | Cc1cc(SCc2sc(-c3ccc(C(F)(F)F)c(F)c3)nc2C)ccc1OCC(=O)O + CC(C)CCN1c2nc(Nc3cc(F)c(O)c(F)c3)ncc2N(C)C(=O)C1C [BID1870] (first compound 2 µM, partner dose 0.2 µM) | 103 | 59.5 | 20 | 92.6 | 54 | 62.6 | 72.9 | 166 | 173
6 | O=C(Nc1ccccc1)c1cc([N+](=O)[O-])ccc1Cl + C/C(O)=C(\C#N)C(=O)Nc1cc(Br)ccc1Br [LFM-A13] (first compound 2 µM, partner dose 2 µM) | 92.1 | 54.3 | 109 | 100 | 52.4 | 135 | 57 | 85.8 | 1140
7 | C[As](C)SC[C@H](NC(=O)CC[C@H](N)C(=O)O)C(=O)NCC(=O)O [Darinaparsin] + COc1cc2ncnc(Nc3ccc(Oc4ccccc4)cc3)c2cc1OC [SrcI1] (first compound 0.4 µM, partner dose 2 µM) | 77.3 | 124 | 80.7 | 68.3 | 105 | 84.2 | 34 | 66.7 | 896
8 | C/C(O)=C(\C#N)C(=O)Nc1cc(Br)ccc1Br + Oc1nc(-c2ccc(C(F)(F)F)cc2)nc2c1CSCC2 [XAV939] (first compound 2 µM, partner dose 2 µM) | 54.9 | 153 | 195 | 71.3 | 69.1 | 83 | 29.2 | 89.2 | 163
9 | C/C(O)=C(\C#N)C(=O)Nc1cc(Br)ccc1Br + c1cc(-c2cnn3cc(-c4ccc(OCCN5CCCCC5)cc4)cnc23)ccn1 [Dorsomorphin] (first compound 2 µM, partner dose 0.4 µM) | 98.5 | 100 | 85.9 | 95.7 | 210 | 83.6 | 29.4 | 66.3 | 135
10 | Cn1c(Nc2ccc(C(F)(F)F)cc2)nc2cc(Oc3ccnc(-c4ncc(C(F)(F)F)[nH]4)c3)ccc21 + O=C(Oc1ccc([N+](=O)[O-])cc1)N1CCC(C(O)(c2ccc3c(c2)OCO3)c2ccc3c(c2)OCO3)CC1 [JZL184] (first compound 0.08 µM, partner dose 1 µM) | 109 | 486 | 125 | 95.1 | 92.8 | 278 | 511 | 130 | 58.2
11 | OCCn1cc(-c2cnc3nnn(Cc4ccc5ncccc5c4)c3n2)cn1 + C/C(O)=C(\C#N)C(=O)Nc1cc(Br)ccc1Br [LFM-A13] (first compound 1 µM, partner dose 2 µM) | 100 | 114 | 87.1 | 63.2 | 171 | 68.1 | 59.1 | 82.4 | 42.7
12 | COCC[n+]1c2c(n(Cc3cnccn3)c1C)C(=O)c1ccccc1C2=O + C/C(O)=C(\C#N)C(=O)Nc1cc(Br)ccc1Br [LFM-A13] (first compound 0.0004 µM, partner dose 2 µM) | 42.5 | 93.2 | 244 | 87.2 | 84.3 | 87.3 | 101 | 116 | 85.5
13 | Cc1cc(SCc2sc(-c3ccc(C(F)(F)F)c(F)c3)nc2C)ccc1OCC(=O)O + COc1cc(N2CCC(N3CCN(C)CC3)CC2)ccc1Nc1ncc(Cl)c(Nc2ccccc2S(=O)(=O)C(C)C)n1 [NVP-TAE684] (first compound 2 µM, partner dose 0.08 µM) | 196 | 35.3 | 55 | 98.9 | 98.5 | 211 | 253 | 80.6 | 35.6
14 | COc1cc2ncnc(Nc3ccc(Oc4ccccc4)cc3)c2cc1OC + C/C(O)=C(\C#N)C(=O)Nc1cc(Br)ccc1Br [LFM-A13] (first compound 2 µM, partner dose 2 µM) | 95.3 | 155 | 113 | 83.3 | 20.5 | 58.1 | 94.4 | 71.1 | 34.3
15 | C[As](C)SC[C@H](NC(=O)CC[C@H](N)C(=O)O)C(=O)NCC(=O)O [Darinaparsin] + CCCCCCCCCCCC1=C(O)C(=O)C=C(O)C1=O [Embelin] (first compound 0.4 µM, partner dose 1.2 µM) | 82.4 | 140 | 62.2 | 153 | 52.2 | 54.6 | 118 | 86.8 | 26.9
16 | Cc1cc(N2CCOCC2)cc2[nH]c(-c3c(NC[C@@H](O)c4cccc(Cl)c4)cc[nH]c3=O)nc12 + C/C(O)=C(\C#N)C(=O)Nc1cc(Br)ccc1Br [LFM-A13] (first compound 0.2 µM, partner dose 2 µM) | 43.8 | 141 | 119 | 115 | 185 | 209 | 127 | 77.2 | 69.5
17 | C[As](C)SC[C@H](NC(=O)CC[C@H](N)C(=O)O)C(=O)NCC(=O)O [Darinaparsin] + O=c1cc(-c2cccc3c2Sc2ccccc2S3)oc(N2CCOCC2)c1 [KU55933] (first compound 0.4 µM, partner dose 1 µM) | 209 | 104 | 97.4 | 74.3 | 23.9 | 77.8 | 56 | 73.6 | 69.8
18 | C[C@]1(c2nc3c(C(N)=O)cccc3[nH]2)CCCN1 [Veliparib] + Cc1cc(SCc2sc(-c3ccc(C(F)(F)F)c(F)c3)nc2C)ccc1OCC(=O)O [GW0742] (first compound 1.4 µM, partner dose 2 µM) | 184 | 136 | 104 | 169 | 103 | 38.2 | 45.1 | 82 | 87.9
19 | C/C(O)=C(\C#N)C(=O)Nc1cc(Br)ccc1Br + CCCCCCCCCCCC1=C(O)C(=O)C=C(O)C1=O [Embelin] (first compound 2 µM, partner dose 1.2 µM) | 77.2 | 67.4 | 98.6 | 110 | 117 | 80.2 | 177 | 89.9 | 83.1
20 | COc1cc(Nc2ncc(F)c(Nc3ccc4c(n3)NC(=O)C(C)(C)O4)n2)cc(OC)c1OC [Tamatinib] + C/C(O)=C(\C#N)C(=O)Nc1cc(Br)ccc1Br [LFM-A13] (first compound 0.4 µM, partner dose 2 µM) | 93.1 | 128 | 24.3 | 123 | 230 | 49.2 | 174 | 77.9 | 21.8
21 | C[As](C)SC[C@H](NC(=O)CC[C@H](N)C(=O)O)C(=O)NCC(=O)O [Darinaparsin] + O=C(Nc1ccccc1)c1cc([N+](=O)[O-])ccc1Cl [GW9662] (first compound 0.4 µM, partner dose 2 µM) | 151 | 62.4 | 167 | 65.4 | 39.7 | 80.6 | 562 | 152 | 19.7
22 | C[As](C)SC[C@H](NC(=O)CC[C@H](N)C(=O)O)C(=O)NCC(=O)O [Darinaparsin] + O=C(O)C(=O)Nc1sc2c(c1C(=O)O)CCNC2 [TCS401] (first compound 0.4 µM, partner dose 1.66667 µM) | 178 | 69.9 | 38.9 | 66.8 | 72.4 | 116 | 169 | 156 | 29
23 | C/C(O)=C(\C#N)C(=O)Nc1cc(Br)ccc1Br + O=c1cc(-c2cccc3c2Sc2ccccc2S3)oc(N2CCOCC2)c1 [KU55933] (first compound 2 µM, partner dose 1 µM) | 184 | 114 | 112 | 33.5 | 143 | 239 | 85.2 | 42.9 | 15.1

Some of the entries so far, comma-delimited:
Row,SMILES,cleaved PARP positive nuclei fraction (CBRC034) [%],cleaved PARP positive nuclei fraction (COLO792) [%],cleaved PARP positive nuclei fraction (COLO800) [%],cleaved PARP positive nuclei fraction (COLO829) [%],cleaved PARP positive nuclei fraction (G361) [%],cleaved PARP positive nuclei fraction (IPC-298) [%],cleaved PARP positive nuclei fraction (IST-MEL1) [%],cleaved PARP positive nuclei fraction (LB2518-MEL) [%],cleaved PARP positive nuclei fraction (LOXIMVI) [%]
5,"Cc1cc(SCc2sc(-c3ccc(C(F)(F)F)c(F)c3)nc2C)ccc1OCC(=O)O + CC(C)CCN1c2nc(Nc3cc(F)c(O)c(F)c3)ncc2N(C)C(=O)C1C [BID1870] (first compound 2 µM, partner dose 0.2 µM)",103,59.5,20,92.6,54,62.6,72.9,166,173
6,"O=C(Nc1ccccc1)c1cc([N+](=O)[O-])ccc1Cl + C/C(O)=C(\C#N)C(=O)Nc1cc(Br)ccc1Br [LFM-A13] (first compound 2 µM, partner dose 2 µM)",92.1,54.3,109,100,52.4,135,57,85.8,1140
7,"C[As](C)SC[C@H](NC(=O)CC[C@H](N)C(=O)O)C(=O)NCC(=O)O [Darinaparsin] + COc1cc2ncnc(Nc3ccc(Oc4ccccc4)cc3)c2cc1OC [SrcI1] (first compound 0.4 µM, partner dose 2 µM)",77.3,124,80.7,68.3,105,84.2,34,66.7,896
8,"C/C(O)=C(\C#N)C(=O)Nc1cc(Br)ccc1Br + Oc1nc(-c2ccc(C(F)(F)F)cc2)nc2c1CSCC2 [XAV939] (first compound 2 µM, partner dose 2 µM)",54.9,153,195,71.3,69.1,83,29.2,89.2,163
9,"C/C(O)=C(\C#N)C(=O)Nc1cc(Br)ccc1Br + c1cc(-c2cnn3cc(-c4ccc(OCCN5CCCCC5)cc4)cnc23)ccn1 [Dorsomorphin] (first compound 2 µM, partner dose 0.4 µM)",98.5,100,85.9,95.7,210,83.6,29.4,66.3,135
10,"Cn1c(Nc2ccc(C(F)(F)F)cc2)nc2cc(Oc3ccnc(-c4ncc(C(F)(F)F)[nH]4)c3)ccc21 + O=C(Oc1ccc([N+](=O)[O-])cc1)N1CCC(C(O)(c2ccc3c(c2)OCO3)c2ccc3c(c2)OCO3)CC1 [JZL184] (first compound 0.08 µM, partner dose 1 µM)",109,486,125,95.1,92.8,278,511,130,58.2
11,"OCCn1cc(-c2cnc3nnn(Cc4ccc5ncccc5c4)c3n2)cn1 + C/C(O)=C(\C#N)C(=O)Nc1cc(Br)ccc1Br [LFM-A13] (first compound 1 µM, partner dose 2 µM)",100,114,87.1,63.2,171,68.1,59.1,82.4,42.7
